Results are given in words; binding and its absence hold for the method and conditions named. Binding seen in cells or lysates may run through a third protein. Some binding calls cover weakened binding; strength is not graded here. Where a sequence is shown, tags or fusion partners need not be part of it.
Target: T1, GST-APE2 (human) (UniProt Q9UBZ4)
T1 sequence: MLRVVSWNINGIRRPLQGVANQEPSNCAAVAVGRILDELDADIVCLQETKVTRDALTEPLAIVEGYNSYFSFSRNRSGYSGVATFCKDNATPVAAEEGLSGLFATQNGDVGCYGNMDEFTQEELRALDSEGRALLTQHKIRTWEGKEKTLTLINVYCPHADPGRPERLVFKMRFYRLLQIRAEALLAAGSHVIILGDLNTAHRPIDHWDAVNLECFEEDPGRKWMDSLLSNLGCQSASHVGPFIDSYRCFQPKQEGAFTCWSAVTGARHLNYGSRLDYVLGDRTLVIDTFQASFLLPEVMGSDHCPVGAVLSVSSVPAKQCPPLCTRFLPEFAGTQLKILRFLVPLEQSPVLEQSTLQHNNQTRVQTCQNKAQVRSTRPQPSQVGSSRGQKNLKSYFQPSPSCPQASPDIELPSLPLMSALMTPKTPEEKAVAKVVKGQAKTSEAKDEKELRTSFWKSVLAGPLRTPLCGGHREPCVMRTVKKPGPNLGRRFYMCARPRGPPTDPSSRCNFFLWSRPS
Assay: pull-down; GST-APE2 or GST as bait; endogenous MKRN3 from isolated HEK293 nuclear extracts; detected by immunoblot; performed as previously described; only the target purified

- binding: binds
B1: Makorin RING finger protein 3 (MKRN3) (protein, UniProt Q13064 1-507)
chain: MEEPAAPSEAHEAAGAQAGAEAAREGVSGPDLPVCEPSGESAAPDSALPHAARGWAPFPVAPVPAHLRRGGLRPAPASGGGAWPSPLPSRSSGIWTKQIICRYYIHGQCKEGENCRYSHDLSGRKMATEGGVSPPGASAGGGPSTAAHIEPPTQEVAEAPPAASSLSLPVIGSAAERGFFEAERDNADRGAAGGAGVESWADAIEFVPGQPYRGRWVASAPEAPLQSSETERKQMAVGSGLRFCYYASRGVCFRGESCMYLHGDICDMCGLQTLHPMDAAQREEHMRACIEAHEKDMELSFAVQRGMDKVCGICMEVVYEKANPNDRRFGILSNCNHSFCIRCIRRWRSARQFENRIVKSCPQCRVTSELVIPSEFWVEEEEEKQKLIQQYKEAMSNKACRYFAEGRGNCPFGDTCFYKHEYPEGWGDEPPGPGGGSFSAYWHQLVEPVRMGEGNMLYKSIKKELVVLRLASLLFKRFLSLRDELPFSEDQWDLLHYELEEYFNLIL

Reference: PMC11157268
